Assay results: the supplement of paper PMC10032668
± gives the standard deviation of the averaged measurements. The list shows a part of the results. Only hits are listed; about a third recur on repeated control peptides.

The chains behind the UniProt entries cited, without tags or fusion partners.
AP2A2, O94973, UniProt O94973, whole entry: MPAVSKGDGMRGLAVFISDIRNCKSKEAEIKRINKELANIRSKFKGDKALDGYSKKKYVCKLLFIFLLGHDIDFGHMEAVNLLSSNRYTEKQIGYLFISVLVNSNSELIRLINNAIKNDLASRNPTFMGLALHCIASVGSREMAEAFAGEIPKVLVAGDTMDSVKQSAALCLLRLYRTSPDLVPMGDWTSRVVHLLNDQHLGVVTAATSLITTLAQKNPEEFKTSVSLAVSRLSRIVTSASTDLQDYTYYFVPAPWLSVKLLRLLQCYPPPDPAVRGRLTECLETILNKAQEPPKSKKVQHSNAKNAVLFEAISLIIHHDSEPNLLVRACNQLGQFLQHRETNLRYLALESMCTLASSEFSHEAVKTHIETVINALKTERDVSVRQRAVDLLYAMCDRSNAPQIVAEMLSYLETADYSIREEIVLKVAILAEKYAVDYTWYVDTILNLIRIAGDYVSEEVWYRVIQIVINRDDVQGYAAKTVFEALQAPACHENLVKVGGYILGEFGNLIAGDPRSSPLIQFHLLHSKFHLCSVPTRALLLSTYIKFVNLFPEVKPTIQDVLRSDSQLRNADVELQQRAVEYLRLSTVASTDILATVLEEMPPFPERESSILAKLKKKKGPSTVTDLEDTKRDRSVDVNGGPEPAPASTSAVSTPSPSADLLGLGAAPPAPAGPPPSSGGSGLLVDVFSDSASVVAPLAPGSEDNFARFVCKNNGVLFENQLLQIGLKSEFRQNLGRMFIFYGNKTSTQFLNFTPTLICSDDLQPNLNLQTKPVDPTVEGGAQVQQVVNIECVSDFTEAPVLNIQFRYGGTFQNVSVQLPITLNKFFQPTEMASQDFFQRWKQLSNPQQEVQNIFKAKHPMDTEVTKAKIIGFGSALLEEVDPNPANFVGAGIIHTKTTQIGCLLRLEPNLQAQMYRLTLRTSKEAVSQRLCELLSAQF
HNRNPU, Q00839, UniProt Q00839, whole entry: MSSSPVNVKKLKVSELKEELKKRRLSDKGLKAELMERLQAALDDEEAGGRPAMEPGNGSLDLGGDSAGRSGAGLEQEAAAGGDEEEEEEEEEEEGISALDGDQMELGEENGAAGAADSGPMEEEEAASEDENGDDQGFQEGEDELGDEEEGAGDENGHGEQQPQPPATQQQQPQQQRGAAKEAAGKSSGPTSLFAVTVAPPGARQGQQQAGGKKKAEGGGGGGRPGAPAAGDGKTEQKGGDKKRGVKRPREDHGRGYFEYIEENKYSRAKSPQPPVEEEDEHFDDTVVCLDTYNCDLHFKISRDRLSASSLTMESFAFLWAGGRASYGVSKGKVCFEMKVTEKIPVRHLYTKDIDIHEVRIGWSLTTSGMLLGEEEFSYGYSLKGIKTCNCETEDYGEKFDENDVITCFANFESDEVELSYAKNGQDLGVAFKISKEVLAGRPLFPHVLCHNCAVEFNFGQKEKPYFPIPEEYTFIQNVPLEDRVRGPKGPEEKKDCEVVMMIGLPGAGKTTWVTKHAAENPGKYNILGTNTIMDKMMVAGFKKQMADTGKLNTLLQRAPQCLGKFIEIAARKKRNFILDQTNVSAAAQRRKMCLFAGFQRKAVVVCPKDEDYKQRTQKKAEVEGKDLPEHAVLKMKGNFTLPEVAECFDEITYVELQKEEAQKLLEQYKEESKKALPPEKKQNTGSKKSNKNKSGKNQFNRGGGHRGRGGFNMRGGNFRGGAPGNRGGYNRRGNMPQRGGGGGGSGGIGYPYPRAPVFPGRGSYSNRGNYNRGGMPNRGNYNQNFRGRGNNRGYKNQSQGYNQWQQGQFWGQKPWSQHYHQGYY
KHDRBS1, Q07666, UniProt Q07666, whole entry: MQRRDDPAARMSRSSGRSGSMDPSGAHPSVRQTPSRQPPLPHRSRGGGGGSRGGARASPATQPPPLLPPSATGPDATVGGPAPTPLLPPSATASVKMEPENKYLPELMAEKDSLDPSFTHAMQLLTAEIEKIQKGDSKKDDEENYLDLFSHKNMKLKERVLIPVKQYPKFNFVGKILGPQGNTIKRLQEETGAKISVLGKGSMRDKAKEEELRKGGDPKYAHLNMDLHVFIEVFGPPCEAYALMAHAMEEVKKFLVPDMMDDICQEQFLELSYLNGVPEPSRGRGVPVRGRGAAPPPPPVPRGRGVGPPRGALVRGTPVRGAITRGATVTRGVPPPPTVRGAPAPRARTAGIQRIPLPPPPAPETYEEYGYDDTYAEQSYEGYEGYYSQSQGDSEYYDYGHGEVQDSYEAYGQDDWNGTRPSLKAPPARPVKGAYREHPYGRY

Assays:
Assay in all cases: PRISMA enrichment of interactor (LFQ) in peptide spot vs all other peptide spots (log2 fold change); higher = stronger / more specific binding of the interactor to the peptide
ALKBH2, Q6NS38 = molecular target: ALKBH2, Q6NS38
Method: (§1)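 PRISMA: 221 full-length sORF-encoded peptides (3-15 aa), plus SOS1/GLUT1 control peptides, were spot-synthesized on cellulose membranes in triplicate. Membranes were incubated with HEK293T lysate, and bound proteins were identified by LC-MS/MS with LFQ. Enrichment is the log2 fold change versus all other peptide spots; only significant interactors are listed (cutoff c=6, x0=2.8).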

ALYREF, Q86V81 = molecular target: ALYREF, Q86V81
Method: as §1

AMMECR1, Q9Y4X0 = molecular target: AMMECR1, Q9Y4X0
Method: as §1

AMMECR1L, Q6DCA0 = molecular target: AMMECR1L, Q6DCA0
Method: as §1

AP1B1, Q10567 = molecular target: AP1B1, Q10567
Method: as §1

AP2A1, O95782 = molecular target: AP2A1, O95782
Method: as §1

AP2A2, O94973 = molecular target: AP2A2, O94973
Method: as §1

AP2B1, P63010 = molecular target: AP2B1, P63010
Method: as §1

AP2M1, Q96CW1 = molecular target: AP2M1, Q96CW1
Method: as §1

AP2S1, P53680 = molecular target: AP2S1, P53680
Method: as §1

BCKDK, O14874 = molecular target: BCKDK, O14874
Method: as §1

C12orf65, Q9H3J6 = molecular target: C12orf65, Q9H3J6
Method: as §1

C19orf53, Q9UNZ5 = molecular target: C19orf53, Q9UNZ5
Method: as §1

C8orf33, Q9H7E9 = molecular target: C8orf33, Q9H7E9
Method: as §1

CC2D1A, Q6P1N0 = molecular target: CC2D1A, Q6P1N0
Method: as §1

CCDC137, Q6PK04 = molecular target: CCDC137, Q6PK04
Method: as §1

CCDC59, Q9P031 = molecular target: CCDC59, Q9P031
Method: as §1

CCNL1, Q9UK58 = molecular target: CCNL1, Q9UK58
Method: as §1

CHTOP, Q9Y3Y2 = molecular target: CHTOP, Q9Y3Y2
Method: as §1

CSNK1A1, P48729 = molecular target: CSNK1A1, P48729
Method: as §1

CSNK1E, P49674 = molecular target: CSNK1E, P49674
Method: as §1

CSRP2, Q16527 = molecular target: CSRP2, Q16527
Method: as §1

CXorf56, Q9H5V9 = molecular target: CXorf56, Q9H5V9
Method: as §1

DDX18, Q9NVP1 = molecular target: DDX18, Q9NVP1
Method: as §1

DDX47, Q9H0S4 = molecular target: DDX47, Q9H0S4
Method: as §1

DDX49, Q9Y6V7 = molecular target: DDX49, Q9Y6V7
Method: as §1

DECR2, Q9NUI1 = molecular target: DECR2, Q9NUI1
Method: as §1

DERPC, P0CG12 = molecular target: DERPC, P0CG12
Method: as §1

EEFSEC, P57772 = molecular target: EEFSEC, P57772
Method: as §1

EGLN1, Q9GZT9 = molecular target: EGLN1, Q9GZT9
Method: as §1

EHHADH, Q08426 = molecular target: EHHADH, Q08426
Method: as §1

EMG1, Q92979 = molecular target: EMG1, Q92979
Method: as §1

EWSR1, Q01844 = molecular target: EWSR1, Q01844
Method: as §1

FBL, P22087 = molecular target: FBL, P22087
Method: as §1

FTSJ3, Q8IY81 = molecular target: FTSJ3, Q8IY81
Method: as §1

FUS, P35637 = molecular target: FUS, P35637
Method: as §1

GABARAPL2, P60520 = molecular target: GABARAPL2, P60520
Method: as §1

GAR1, Q9NY12 = molecular target: GAR1, Q9NY12
Method: as §1

GSK3B, P49841 = molecular target: GSK3B, P49841
Method: as §1

GTPBP1, O00178 = molecular target: GTPBP1, O00178
Method: as §1

H1FX, Q92522 = molecular target: H1FX, Q92522
Method: as §1

HMGB2, P26583 = molecular target: HMGB2, P26583
Method: as §1

HNRNPU, Q00839 = molecular target: HNRNPU, Q00839
Method: as §1

HP1BP3, Q5SSJ5 = molecular target: HP1BP3, Q5SSJ5
Method: as §1

IBA57, Q5T440 = molecular target: IBA57, Q5T440
Method: as §1

ISG20L2, Q9H9L3 = molecular target: ISG20L2, Q9H9L3
Method: as §1

KHDRBS1, Q07666 = molecular target: KHDRBS1, Q07666
Method: as §1

KIF4A, O95239 = molecular target: KIF4A, O95239
Method: as §1

KIFC1, Q9BW19 = molecular target: KIFC1, Q9BW19
Method: as §1

MAP4, P27816 = molecular target: MAP4, P27816
Method: as §1

Question: For MAEAGDFW [INSIG2], which “PRISMA enrichment of interactor (log2)” value (ALKBH2, Q6NS38) is on record?
Answer: The value was 4.97.

Question: What about the “PRISMA enrichment of interactor (log2)” value (ALYREF, Q86V81) of the same binder?
Answer: The value was 6.01 ± 0.77.

Question: What about the “PRISMA enrichment of interactor (log2)” value (AMMECR1, Q9Y4X0) of the same binder?
Answer: The value was 4.67.

Question: And the “PRISMA enrichment of interactor (log2)” value (AMMECR1L, Q6DCA0)?
Answer: The value was 5.23.

Question: And the “PRISMA enrichment of interactor (log2)” value (AP1B1, Q10567)?
Answer: Its value is 4.11.

Question: And the “PRISMA enrichment of interactor (log2)” value (AP2A1, O95782)?
Answer: The value was 8.35.

Question: And the “PRISMA enrichment of interactor (log2)” value (AP2A2, O94973)?
Answer: Its value is 7.43.

Question: And the “PRISMA enrichment of interactor (log2)” value (AP2B1, P63010)?
Answer: The value was 7.7.

Question: What about the “PRISMA enrichment of interactor (log2)” value (AP2M1, Q96CW1) of the same binder?
Answer: The value was 7.35.

Question: What about the “PRISMA enrichment of interactor (log2)” value (AP2S1, P53680) of the same binder?
Answer: The value was 5.49.

Question: What about the “PRISMA enrichment of interactor (log2)” value (BCKDK, O14874) of the same binder?
Answer: Its value is 7.62.

Question: What about the “PRISMA enrichment of interactor (log2)” value (C12orf65, Q9H3J6) of the same binder?
Answer: Its value is 5.03.

Question: What about the “PRISMA enrichment of interactor (log2)” value (C19orf53, Q9UNZ5) of the same binder?
Answer: Its value is 8.3.

Question: What about the “PRISMA enrichment of interactor (log2)” value (C8orf33, Q9H7E9) of the same binder?
Answer: The value was 4.95.

Question: What about the “PRISMA enrichment of interactor (log2)” value (CC2D1A, Q6P1N0) of the same binder?
Answer: The value was 8.34.

Question: And the “PRISMA enrichment of interactor (log2)” value (CCDC137, Q6PK04)?
Answer: Its value is 8.12.

Question: And the “PRISMA enrichment of interactor (log2)” value (CCDC59, Q9P031)?
Answer: The value was 6.06.

Question: What about the “PRISMA enrichment of interactor (log2)” value (CCNL1, Q9UK58) of the same binder?
Answer: The value was 4.47.

Question: And the “PRISMA enrichment of interactor (log2)” value (CHTOP, Q9Y3Y2)?
Answer: The value was 6.61.

Question: What about the “PRISMA enrichment of interactor (log2)” value (CSNK1A1, P48729) of the same binder?
Answer: The value was 8.79.

Question: What about the “PRISMA enrichment of interactor (log2)” value (CSNK1E, P49674) of the same binder?
Answer: Its value is 8.29.

Question: What about the “PRISMA enrichment of interactor (log2)” value (CSRP2, Q16527) of the same binder?
Answer: Its value is 5.53.

Question: And the “PRISMA enrichment of interactor (log2)” value (CXorf56, Q9H5V9)?
Answer: Its value is 6.71.

Question: What about the “PRISMA enrichment of interactor (log2)” value (DDX18, Q9NVP1) of the same binder?
Answer: The value was 5.42.

Question: And the “PRISMA enrichment of interactor (log2)” value (DDX47, Q9H0S4)?
Answer: The value was 5.31.

Question: What about the “PRISMA enrichment of interactor (log2)” value (DDX49, Q9Y6V7) of the same binder?
Answer: The value was 5.33.

Question: What about the “PRISMA enrichment of interactor (log2)” value (DECR2, Q9NUI1) of the same binder?
Answer: Its value is 6.81.

Question: And the “PRISMA enrichment of interactor (log2)” value (DERPC, P0CG12)?
Answer: The value was 5.93.

Question: What about the “PRISMA enrichment of interactor (log2)” value (EEFSEC, P57772) of the same binder?
Answer: The value was 5.61.

Question: And the “PRISMA enrichment of interactor (log2)” value (EGLN1, Q9GZT9)?
Answer: Its value is 3.97.

Question: What about the “PRISMA enrichment of interactor (log2)” value (EHHADH, Q08426) of the same binder?
Answer: Its value is 7.65.

Question: And the “PRISMA enrichment of interactor (log2)” value (EMG1, Q92979)?
Answer: The value was 7.9.

Question: What about the “PRISMA enrichment of interactor (log2)” value (EWSR1, Q01844) of the same binder?
Answer: Its value is 5.88.

Question: What about the “PRISMA enrichment of interactor (log2)” value (FBL, P22087) of the same binder?
Answer: Its value is 6.53.

Question: And the “PRISMA enrichment of interactor (log2)” value (FTSJ3, Q8IY81)?
Answer: The value was 5.04.

Question: And the “PRISMA enrichment of interactor (log2)” value (FUS, P35637)?
Answer: The value was 5.87.

Question: And the “PRISMA enrichment of interactor (log2)” value (GABARAPL2, P60520)?
Answer: Its value is 5.02.

Question: And the “PRISMA enrichment of interactor (log2)” value (GAR1, Q9NY12)?
Answer: Its value is 5.78.

Question: And the “PRISMA enrichment of interactor (log2)” value (GSK3B, P49841)?
Answer: Its value is 5.45.

Question: What about the “PRISMA enrichment of interactor (log2)” value (GTPBP1, O00178) of the same binder?
Answer: Its value is 5.68.

Question: What about the “PRISMA enrichment of interactor (log2)” value (H1FX, Q92522) of the same binder?
Answer: Its value is 5.24.

Question: And the “PRISMA enrichment of interactor (log2)” value (HMGB2, P26583)?
Answer: The value was 4.51.

Question: And the “PRISMA enrichment of interactor (log2)” value (HNRNPU, Q00839)?
Answer: Its value is 5.05.

Question: What about the “PRISMA enrichment of interactor (log2)” value (HP1BP3, Q5SSJ5) of the same binder?
Answer: The value was 6.06.

Question: And the “PRISMA enrichment of interactor (log2)” value (IBA57, Q5T440)?
Answer: The value was 6.77.

Question: What about the “PRISMA enrichment of interactor (log2)” value (ISG20L2, Q9H9L3) of the same binder?
Answer: Its value is 5.3.

Question: What about the “PRISMA enrichment of interactor (log2)” value (KHDRBS1, Q07666) of the same binder?
Answer: Its value is 6.5.

Question: And the “PRISMA enrichment of interactor (log2)” value (KIF4A, O95239)?
Answer: The value was 5.22.

Question: And the “PRISMA enrichment of interactor (log2)” value (KIFC1, Q9BW19)?
Answer: The value was 6.03.

Question: And the “PRISMA enrichment of interactor (log2)” value (MAP4, P27816)?
Answer: Its value is 6.38.
